In patent US20240190950A1, “METHOD OF TREATING DISEASES USING GREMLIN1 ANTAGONISTS” (SHANGHAI JIAO TONG UNIVERSITY, priority 2021, published 2024) one finds binding data, which are given here for two substances.

The chains behind the UniProt entries cited, without tags or fusion partners. Where a name states a change or a piece, a line headed by the entry shows the natural chain unless it says otherwise.
UniProt O60565: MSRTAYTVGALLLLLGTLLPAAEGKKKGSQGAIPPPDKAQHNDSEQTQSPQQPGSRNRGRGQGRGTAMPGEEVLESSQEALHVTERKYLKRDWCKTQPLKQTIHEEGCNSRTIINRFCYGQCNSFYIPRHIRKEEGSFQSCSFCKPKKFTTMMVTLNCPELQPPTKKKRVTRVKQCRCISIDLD
UniProt P11362: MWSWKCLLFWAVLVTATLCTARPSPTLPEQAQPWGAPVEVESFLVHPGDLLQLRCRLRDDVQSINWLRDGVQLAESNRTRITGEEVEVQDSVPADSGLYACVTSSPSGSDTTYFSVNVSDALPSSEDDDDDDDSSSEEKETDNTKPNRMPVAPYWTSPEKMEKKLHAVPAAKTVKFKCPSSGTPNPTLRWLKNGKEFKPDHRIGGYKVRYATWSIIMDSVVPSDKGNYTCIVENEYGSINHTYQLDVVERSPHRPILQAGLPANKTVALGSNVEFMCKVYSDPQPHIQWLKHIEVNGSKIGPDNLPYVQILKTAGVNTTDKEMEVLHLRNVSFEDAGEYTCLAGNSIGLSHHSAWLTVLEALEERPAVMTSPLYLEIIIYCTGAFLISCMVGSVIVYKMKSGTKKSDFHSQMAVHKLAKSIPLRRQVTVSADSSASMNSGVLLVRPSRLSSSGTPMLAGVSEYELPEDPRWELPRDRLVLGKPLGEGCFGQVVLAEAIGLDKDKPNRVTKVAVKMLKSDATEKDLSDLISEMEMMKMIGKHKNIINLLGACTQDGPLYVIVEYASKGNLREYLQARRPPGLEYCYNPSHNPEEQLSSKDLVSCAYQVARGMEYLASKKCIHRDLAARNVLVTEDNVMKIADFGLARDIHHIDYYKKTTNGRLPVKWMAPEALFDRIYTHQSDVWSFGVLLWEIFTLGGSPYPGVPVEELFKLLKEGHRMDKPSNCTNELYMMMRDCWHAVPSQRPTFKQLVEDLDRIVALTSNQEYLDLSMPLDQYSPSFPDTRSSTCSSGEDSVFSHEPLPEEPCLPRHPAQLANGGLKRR

These are yes or no findings as the source states them, for the method shown. Some results given as binding are weak or reduced against the parent protein; the word gives no strength.

The target in test [1] is Gremlin1 (human gremlin 1, hGREM1) (human) (UniProt O60565). The test is described as follows: competitive ELISA; soluble FGFR1 as competitor of the Gremlin1-FGFR1 binding.
The target is the same in test [2]. The test is described as follows: competitive ELISA: soluble FGFR1-Fc in rising concentration with Gremlin1-biotin, competing with the binding of Gremlin1 to FGFR1. On the technique in general: ELISA stands for enzyme-linked immunosorbent assay.
Test [3] shares this target. Nature of the test: pull-down with purified Gremlin1 and soluble FGFR1 protein.
For test [4] the target is unchanged. Nature of the test: pull-down with purified proteins.
Test [5] shares this target. The test is described as follows: ForteBio, Gremlin1-biotin on streptavidin sensor. In general terms: BLI is a label-free optical method that tracks binding on a fibre tip over time.

For the substance “soluble FGFR1 (from UniProt P11362 22-376) (receptor)”, the binding result in test [1], in test [2], in test [3] and in test [4] was “binds” throughout.
For the substance “FGFR1 (protein used in the ForteBio and ELISA assays) (from UniProt P11362 22-376) (receptor)”, in test [5], the binding entry is “binds”.
